# Measured values taken from the supplement of paper PMC10849652.
# By UniProt entry, the sequences of proteins in these tests, tags left out. Where a name states a change or a piece, a line headed by the entry shows the natural chain unless it says otherwise.
# UniProt Q96EN8: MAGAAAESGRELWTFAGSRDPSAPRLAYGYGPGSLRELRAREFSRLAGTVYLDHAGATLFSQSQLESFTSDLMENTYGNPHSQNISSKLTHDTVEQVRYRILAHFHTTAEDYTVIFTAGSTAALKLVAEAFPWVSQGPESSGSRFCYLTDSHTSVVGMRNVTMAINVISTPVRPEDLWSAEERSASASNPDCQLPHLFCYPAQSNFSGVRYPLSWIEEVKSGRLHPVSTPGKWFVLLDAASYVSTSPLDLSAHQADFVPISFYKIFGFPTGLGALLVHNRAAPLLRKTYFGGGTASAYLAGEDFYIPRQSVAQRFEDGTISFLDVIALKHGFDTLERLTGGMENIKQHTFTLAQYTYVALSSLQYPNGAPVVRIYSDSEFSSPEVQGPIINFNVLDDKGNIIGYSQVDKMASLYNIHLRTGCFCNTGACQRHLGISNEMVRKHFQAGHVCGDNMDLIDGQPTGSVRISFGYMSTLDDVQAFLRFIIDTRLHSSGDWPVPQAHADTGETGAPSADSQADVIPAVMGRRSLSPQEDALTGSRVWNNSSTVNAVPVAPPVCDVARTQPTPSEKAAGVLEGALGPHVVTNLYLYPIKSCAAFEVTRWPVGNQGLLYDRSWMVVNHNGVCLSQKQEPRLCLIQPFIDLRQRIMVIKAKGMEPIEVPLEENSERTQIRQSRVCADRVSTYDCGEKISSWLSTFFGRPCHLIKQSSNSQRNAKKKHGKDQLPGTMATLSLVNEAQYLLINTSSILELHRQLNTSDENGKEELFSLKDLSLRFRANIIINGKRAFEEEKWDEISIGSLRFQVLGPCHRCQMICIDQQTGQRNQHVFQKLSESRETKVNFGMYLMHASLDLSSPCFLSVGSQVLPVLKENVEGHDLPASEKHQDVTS
# UniProt Q9UBU8, whole entry, looked up: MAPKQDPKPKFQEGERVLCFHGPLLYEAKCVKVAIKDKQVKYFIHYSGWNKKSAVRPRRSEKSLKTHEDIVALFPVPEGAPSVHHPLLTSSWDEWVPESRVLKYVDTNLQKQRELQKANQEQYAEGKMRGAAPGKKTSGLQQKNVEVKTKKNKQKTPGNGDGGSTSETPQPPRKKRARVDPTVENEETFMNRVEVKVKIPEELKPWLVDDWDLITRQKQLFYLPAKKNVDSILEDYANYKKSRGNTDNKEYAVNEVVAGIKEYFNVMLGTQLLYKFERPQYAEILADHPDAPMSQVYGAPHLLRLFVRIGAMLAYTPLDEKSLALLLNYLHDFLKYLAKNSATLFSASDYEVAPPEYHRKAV
# UniProt Q86VX9: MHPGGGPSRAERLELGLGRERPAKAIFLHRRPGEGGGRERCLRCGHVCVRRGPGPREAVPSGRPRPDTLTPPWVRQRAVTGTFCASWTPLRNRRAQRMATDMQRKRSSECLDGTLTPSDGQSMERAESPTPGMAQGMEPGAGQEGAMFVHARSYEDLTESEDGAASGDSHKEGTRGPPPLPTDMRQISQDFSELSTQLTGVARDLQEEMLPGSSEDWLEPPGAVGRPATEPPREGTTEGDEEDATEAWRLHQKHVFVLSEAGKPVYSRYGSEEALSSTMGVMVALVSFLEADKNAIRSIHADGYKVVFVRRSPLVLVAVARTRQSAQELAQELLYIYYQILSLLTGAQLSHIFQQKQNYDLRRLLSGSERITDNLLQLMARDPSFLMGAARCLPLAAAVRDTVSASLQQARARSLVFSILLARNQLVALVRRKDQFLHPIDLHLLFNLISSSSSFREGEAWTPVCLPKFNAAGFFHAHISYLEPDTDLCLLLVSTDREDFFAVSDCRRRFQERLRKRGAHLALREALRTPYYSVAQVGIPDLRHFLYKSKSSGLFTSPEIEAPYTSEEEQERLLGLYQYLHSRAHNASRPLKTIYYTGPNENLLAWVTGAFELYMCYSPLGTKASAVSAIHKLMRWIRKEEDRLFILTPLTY
# UniProt Q9BV20: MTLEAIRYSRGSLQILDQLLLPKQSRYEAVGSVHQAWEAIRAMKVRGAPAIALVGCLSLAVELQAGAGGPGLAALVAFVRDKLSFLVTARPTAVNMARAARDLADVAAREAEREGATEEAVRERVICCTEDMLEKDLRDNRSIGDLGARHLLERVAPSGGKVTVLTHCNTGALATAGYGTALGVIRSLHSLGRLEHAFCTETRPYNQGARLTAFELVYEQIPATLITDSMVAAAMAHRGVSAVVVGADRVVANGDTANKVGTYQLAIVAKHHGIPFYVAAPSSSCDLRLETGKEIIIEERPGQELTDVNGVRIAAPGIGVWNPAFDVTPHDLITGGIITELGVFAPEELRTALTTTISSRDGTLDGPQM
# UniProt Q9BUB5: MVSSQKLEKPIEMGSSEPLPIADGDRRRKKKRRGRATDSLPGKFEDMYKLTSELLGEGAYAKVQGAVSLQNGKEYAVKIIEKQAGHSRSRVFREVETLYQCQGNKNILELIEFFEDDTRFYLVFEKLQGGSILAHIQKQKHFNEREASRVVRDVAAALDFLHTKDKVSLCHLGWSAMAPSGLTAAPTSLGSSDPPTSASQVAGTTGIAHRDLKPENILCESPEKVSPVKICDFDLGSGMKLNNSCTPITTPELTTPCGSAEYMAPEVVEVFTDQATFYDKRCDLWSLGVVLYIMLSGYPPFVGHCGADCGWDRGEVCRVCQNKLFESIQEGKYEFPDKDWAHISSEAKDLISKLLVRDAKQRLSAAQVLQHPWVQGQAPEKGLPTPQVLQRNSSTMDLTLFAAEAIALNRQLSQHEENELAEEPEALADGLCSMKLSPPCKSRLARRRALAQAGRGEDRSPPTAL
# UniProt Q9BWT6: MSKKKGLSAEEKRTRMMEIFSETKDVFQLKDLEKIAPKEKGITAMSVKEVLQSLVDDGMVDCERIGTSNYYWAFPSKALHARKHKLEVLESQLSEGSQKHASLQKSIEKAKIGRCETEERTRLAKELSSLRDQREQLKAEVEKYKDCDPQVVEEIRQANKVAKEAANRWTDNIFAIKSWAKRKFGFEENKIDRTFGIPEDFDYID
# UniProt P29372, whole entry, looked up: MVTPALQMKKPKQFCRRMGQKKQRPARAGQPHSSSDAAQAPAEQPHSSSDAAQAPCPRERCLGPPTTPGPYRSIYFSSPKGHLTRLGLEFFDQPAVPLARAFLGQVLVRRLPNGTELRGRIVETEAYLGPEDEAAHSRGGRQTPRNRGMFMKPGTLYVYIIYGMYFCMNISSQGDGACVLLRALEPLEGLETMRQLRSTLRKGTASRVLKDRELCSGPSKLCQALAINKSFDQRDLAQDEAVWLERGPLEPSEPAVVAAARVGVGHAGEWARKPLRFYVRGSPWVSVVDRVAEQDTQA
# UniProt Q5XKP0: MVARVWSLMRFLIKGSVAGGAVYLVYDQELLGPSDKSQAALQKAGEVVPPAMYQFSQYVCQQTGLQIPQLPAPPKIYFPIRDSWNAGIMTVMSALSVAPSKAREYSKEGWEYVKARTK
# UniProt O96007: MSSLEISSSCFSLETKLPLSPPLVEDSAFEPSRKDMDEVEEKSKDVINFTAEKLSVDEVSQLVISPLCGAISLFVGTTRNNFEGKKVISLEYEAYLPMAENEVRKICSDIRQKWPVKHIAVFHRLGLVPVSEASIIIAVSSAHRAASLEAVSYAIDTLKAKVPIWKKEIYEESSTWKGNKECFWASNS
# UniProt Q8N344: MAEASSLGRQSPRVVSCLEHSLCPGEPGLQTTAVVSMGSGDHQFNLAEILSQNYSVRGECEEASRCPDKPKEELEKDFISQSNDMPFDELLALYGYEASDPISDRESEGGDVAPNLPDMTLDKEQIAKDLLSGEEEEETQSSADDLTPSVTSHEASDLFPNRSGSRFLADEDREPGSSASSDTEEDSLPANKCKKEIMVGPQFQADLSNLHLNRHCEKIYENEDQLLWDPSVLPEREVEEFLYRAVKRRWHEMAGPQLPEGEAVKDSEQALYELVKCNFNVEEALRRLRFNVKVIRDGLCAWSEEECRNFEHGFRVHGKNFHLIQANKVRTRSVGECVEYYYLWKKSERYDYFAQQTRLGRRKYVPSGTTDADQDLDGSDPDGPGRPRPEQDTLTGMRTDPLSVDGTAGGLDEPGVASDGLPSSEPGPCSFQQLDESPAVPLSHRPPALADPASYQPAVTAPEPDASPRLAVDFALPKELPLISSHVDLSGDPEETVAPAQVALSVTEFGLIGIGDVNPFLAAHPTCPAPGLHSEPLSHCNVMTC
# UniProt Q9UHC7: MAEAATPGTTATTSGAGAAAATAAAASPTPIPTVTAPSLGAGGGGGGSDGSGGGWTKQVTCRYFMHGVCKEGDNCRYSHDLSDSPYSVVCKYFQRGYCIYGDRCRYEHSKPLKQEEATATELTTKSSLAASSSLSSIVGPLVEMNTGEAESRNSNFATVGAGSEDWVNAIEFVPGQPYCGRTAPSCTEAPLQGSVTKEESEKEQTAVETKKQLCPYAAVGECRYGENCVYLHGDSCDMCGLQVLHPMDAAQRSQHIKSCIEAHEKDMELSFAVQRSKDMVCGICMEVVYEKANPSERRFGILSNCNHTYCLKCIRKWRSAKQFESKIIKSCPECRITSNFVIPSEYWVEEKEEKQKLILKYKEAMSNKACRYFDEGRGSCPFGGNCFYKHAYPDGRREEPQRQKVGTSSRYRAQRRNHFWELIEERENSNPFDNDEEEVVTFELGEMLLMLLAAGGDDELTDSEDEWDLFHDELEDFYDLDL
# UniProt Q6WCQ1: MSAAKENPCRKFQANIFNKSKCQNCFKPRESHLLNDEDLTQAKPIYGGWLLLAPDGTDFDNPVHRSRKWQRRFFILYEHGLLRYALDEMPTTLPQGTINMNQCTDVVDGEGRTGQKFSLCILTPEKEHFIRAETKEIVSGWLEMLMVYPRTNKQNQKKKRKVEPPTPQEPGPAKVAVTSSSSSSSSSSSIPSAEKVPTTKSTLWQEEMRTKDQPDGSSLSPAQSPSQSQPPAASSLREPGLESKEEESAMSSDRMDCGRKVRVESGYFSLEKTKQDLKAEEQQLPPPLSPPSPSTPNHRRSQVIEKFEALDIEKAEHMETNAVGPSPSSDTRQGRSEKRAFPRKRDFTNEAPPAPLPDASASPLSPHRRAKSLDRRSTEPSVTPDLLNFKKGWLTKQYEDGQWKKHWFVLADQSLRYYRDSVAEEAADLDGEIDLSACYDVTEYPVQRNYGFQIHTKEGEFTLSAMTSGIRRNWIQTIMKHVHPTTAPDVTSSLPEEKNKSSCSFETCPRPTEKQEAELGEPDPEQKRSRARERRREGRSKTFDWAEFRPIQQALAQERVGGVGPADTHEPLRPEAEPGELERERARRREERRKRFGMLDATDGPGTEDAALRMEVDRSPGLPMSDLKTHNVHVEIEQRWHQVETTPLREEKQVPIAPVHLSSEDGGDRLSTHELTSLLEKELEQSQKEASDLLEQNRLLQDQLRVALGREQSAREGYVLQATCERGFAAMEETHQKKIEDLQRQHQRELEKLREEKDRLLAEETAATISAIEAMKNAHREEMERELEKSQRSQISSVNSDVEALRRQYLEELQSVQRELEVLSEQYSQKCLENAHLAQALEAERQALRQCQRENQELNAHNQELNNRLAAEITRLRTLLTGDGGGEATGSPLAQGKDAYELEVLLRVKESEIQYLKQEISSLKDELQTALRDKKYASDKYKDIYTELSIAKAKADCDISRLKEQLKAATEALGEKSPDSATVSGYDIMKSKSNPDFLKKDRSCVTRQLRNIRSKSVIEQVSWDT
# UniProt Q70IA6: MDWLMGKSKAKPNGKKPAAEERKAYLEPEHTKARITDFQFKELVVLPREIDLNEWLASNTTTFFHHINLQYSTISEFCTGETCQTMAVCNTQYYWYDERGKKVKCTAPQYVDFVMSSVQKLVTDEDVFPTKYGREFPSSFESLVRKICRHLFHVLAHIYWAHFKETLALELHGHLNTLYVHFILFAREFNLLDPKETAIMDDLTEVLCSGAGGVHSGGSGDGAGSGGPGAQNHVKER
# UniProt Q9H081: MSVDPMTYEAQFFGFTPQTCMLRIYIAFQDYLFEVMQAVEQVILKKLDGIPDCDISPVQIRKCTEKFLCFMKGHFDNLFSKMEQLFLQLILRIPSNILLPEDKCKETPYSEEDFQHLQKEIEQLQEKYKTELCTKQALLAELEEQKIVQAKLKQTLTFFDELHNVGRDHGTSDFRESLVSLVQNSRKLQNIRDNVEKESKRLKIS
# UniProt Q8N108: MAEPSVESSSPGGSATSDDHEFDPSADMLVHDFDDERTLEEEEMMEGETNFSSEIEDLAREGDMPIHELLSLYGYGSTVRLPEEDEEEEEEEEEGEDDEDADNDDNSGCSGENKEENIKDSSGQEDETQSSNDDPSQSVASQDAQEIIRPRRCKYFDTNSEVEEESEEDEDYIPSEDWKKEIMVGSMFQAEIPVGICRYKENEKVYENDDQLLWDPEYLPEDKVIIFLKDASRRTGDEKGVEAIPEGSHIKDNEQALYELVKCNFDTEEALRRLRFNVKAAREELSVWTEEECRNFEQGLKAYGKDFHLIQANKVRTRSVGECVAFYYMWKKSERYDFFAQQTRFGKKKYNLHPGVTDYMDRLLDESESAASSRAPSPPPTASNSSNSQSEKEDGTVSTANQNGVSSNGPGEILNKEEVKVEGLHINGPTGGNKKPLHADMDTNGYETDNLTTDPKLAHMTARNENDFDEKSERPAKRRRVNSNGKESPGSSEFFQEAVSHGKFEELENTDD
# The list shows a part of the results.
# Compound: c1ccc([C@@H]2C[C@H]2NC2CCNCC2)cc1
# Assay: log2 fold change, soluble protein after heating vs DMSO (PISA); higher = thermal stabilisation; K562 lysate, 10 uM; active = over 0.2 and 3.5 SD of the protein, either way, in both replicates (recomputed)
# In short: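 A 30 min treatment with 10 μM compound was applied to crude K562 extract at 1 mg/mL protein in PBS pH 7.4 with 1 mM MgCl2. Heating for 3 min spanned 48°C-58°C, after which aliquots were pooled, adjusted to 0.5% NP-40 at 4°C and spun at 21,000xg for 90 min. TMTpro 16plex LC-MS/MS of the supernatant, with channel sums equalised, gave values recorded as log-two fold change in thermal stability against solvent controls, from duplicates.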
row,Target,log2 fold change
1,MOCOS (UniProt Q96EN8),inactive: -0.005
2,MORC3 (UniProt Q14149),inactive: 0.012
3,MLLT1 (UniProt Q03111),inactive: -0.013
4,MIEF1 (UniProt L0R8F8),inactive: 0.096
5,MORF4L1 isoform 2 (UniProt Q9UBU8),inactive: -0.035
6,MIA2 (UniProt Q96PC5),inactive: 0.095
7,MON1A (UniProt Q86VX9),inactive: -0.014
8,MRI1 (UniProt Q9BV20),inactive: -0.033
9,MKNK1 (UniProt Q9BUB5),inactive: -0.025
10,MND1 (UniProt Q9BWT6),inactive: 0.042
11,MPG (UniProt P29372),inactive: -0.017
12,MGST3 (UniProt O14880),inactive: 0.056
13,MICOS13 (UniProt Q5XKP0),inactive: 0.05
14,MRPL15 (UniProt Q9P015),inactive: -0.212
15,MOCS2 (UniProt O96007),inactive: 0.016
16,MRPL14 (UniProt Q6P1L8),inactive: 0.043
17,MINK1 (UniProt Q8N4C8),inactive: 0.086

# Two entries from above, bar-delimited:
row | Target | log2 fold change
14 | MRPL15 (UniProt Q9P015) | inactive: -0.212
15 | MOCS2 (UniProt O96007) | inactive: 0.016

# Further results:

row,Target,log2 fold change
1,MIER2 (UniProt Q8N344),inactive: 0.056
2,MMADHC (UniProt Q9H3L0),inactive: -0.004
3,MIA3 (UniProt Q5JRA6),inactive: 0.019
4,MINPP1 (UniProt Q9UNW1),inactive: 0.028
5,MOB1B isoform 2 (UniProt Q7L9L4),inactive: -0.057
6,MIER3 isoform 2 (UniProt Q7Z3K6),inactive: 0.06
7,MKRN1 (UniProt Q9UHC7),inactive: -0.017
8,MPRIP isoform 2 (UniProt Q6WCQ1),inactive: -0.033
9,MRPL12 (UniProt P52815),inactive: 0.047
10,MPP5 (UniProt Q8N3R9),inactive: -0.11
11,MOSPD2 (UniProt Q8NHP6),inactive: -0.013
12,MOB2 isoform 3 (UniProt Q70IA6),inactive: 0.044
13,MIS12 (UniProt Q9H081),inactive: -0.03
14,MICALL2 (UniProt Q8IY33),inactive: -0.006
15,MRGBP (UniProt Q9NV56),inactive: -0.115
16,MIER1 isoform 12 (UniProt Q8N108),inactive: -0.013
17,MGAT4B isoform 3 (UniProt Q9UQ53),inactive: 0.049
